# Not every detail of the peptide structures is certain; ends, links or a residue may be inferred. Ends that are not written are not given here.
# Test system: B16F10 cells
# Test: Lightening effect evaluation (melanin in α-MSH-treated B16F10 cells)
# Assay type: cell-based
# Details: B16F10, α-MSH-induced, different concentrations, 3 days
sequence,measurement,setting,value
"DEQERRRRRGRTRVRSE [RMNE1, DEQERRRRRGRTRVRSE]",lightening effect,Kojic Acid as control (FIG. 4),lightening effect was checked
same,melanin inhibition efficacy,vs Arbutin (FIG. 3),"higher melanin inhibition efficacy was identified compared to the control group, Arbutin"
